Data reported in PubChem BioAssay AID248 (DTP/NCI, 2004).
The list is a part of this screen's results and no random one: it is rich in T/C values a quarter to a half above the control, in often repeated tests (any T/C) and in doses without a T/C. Other doses and runs of a compound stand elsewhere. T/C: endpoint of the treated group in % of that of the vehicle group. Some entries give survivors of the animals treated and no T/C: the source files T/C as zero there, which appears to mark a toxic dose or a test without result, not a measured value. Some survivor counts are full or nearly so, which does not show that the dose was tolerated: survival well below the control is almost never listed, so the zero probably covers shortened survival too. Counts of survivors are from the toxicity check (mostly the fifth day) where no day follows; animals may have died later. Schedule codes are those of the source, read here as Q, the interval in days (D) or hours (H), X, the number of doses. Some schedule codes hold Z or #, which are not explained here. Where survival is the endpoint, the PubChem record calls one and a half times the control and up active, and a quarter to a half above the control has no call in these data; cut-offs in other NCI protocols can differ. Some T/C values are followed by the survivors on the day toxicity was checked, most often the fifth; without a count, all were alive then.

System: L1210 leukemia ip in BDF1 mice, survival T/C
Assay: NCI In Vivo Anticancer Drug Screen. Data for tumor model L1210 Leukemia (intraperitoneal) in B6D2F1 (BDF1) mice
Conditions: T/C endpoint: mean survival time, higher T/C = longer survival
[1] = dose: 200.0 mg/kg/injection, schedule: Q01DX001 (ip), vehicle: carboxymethylcellulose (CMC)
[2] = dose: 400.0 mg/kg/injection, schedule: Q01DX001 (ip), vehicle: carboxymethylcellulose (CMC)
[3] = dose: 400.0 mg/kg/injection, schedule: Q04DX003 (ip), vehicle: Klucel (hydroxypropylcellulose) (HPC)
[4] = dose: 400.0 mg/kg/injection, schedule: Q04DX003 (ip), vehicle: saline with Tween-80
[5] = dose: 200.0 mg/kg/injection, schedule: Q04DX003 (ip), vehicle: saline with Tween-80
[6] = dose: 100.0 mg/kg/injection, schedule: Q04DX003 (ip), vehicle: saline

Question: `CCOc1cc(/C=N\Nc2nncn2N)ccc1N(CCCl)CCCl` was tested. Which T/C (dose: 4.0 mg/kg/injection, schedule: Q01DX015 (ip), vehicle: carboxymethylcellulose (CMC)) did it give?
Answer: 134 % of control [5 of 6 alive]

Question: And the T/C (dose: 9.0 mg/kg/injection, schedule: Q01DX001 (ip), vehicle: carboxymethylcellulose (CMC))?
Answer: 129 % of control

Question: And the T/C (dose: 10.0 mg/kg/injection, schedule: Q01DX001 (ip), vehicle: carboxymethylcellulose (CMC))?
Answer: 130 % of control

Question: What about the T/C (dose: 13.0 mg/kg/injection, schedule: Q01DX001 (ip), vehicle: carboxymethylcellulose (CMC)) of the same compound?
Answer: 138 % of control

Question: What about the T/C (dose: 20.0 mg/kg/injection, schedule: Q01DX001 (ip), vehicle: carboxymethylcellulose (CMC)) of the same compound?
Answer: 145 % of control

Question: What about the survivor count (dose: 20.0 mg/kg/injection, schedule: Q01DX015 (ip), vehicle: carboxymethylcellulose (CMC)) of the same compound?
Answer: 2 of 6

Question: And the survivor count (dose: 30.0 mg/kg/injection, schedule: Q01DX001 (ip), vehicle: carboxymethylcellulose (CMC))?
Answer: 1 of 4

Question: What about the survivor count (dose: 40.0 mg/kg/injection, schedule: Q01DX001 (ip), vehicle: carboxymethylcellulose (CMC)) of the same compound?
Answer: 2 of 4

Question: What about the survivor count (dose: 50.0 mg/kg/injection, schedule: Q01DX001 (ip), vehicle: carboxymethylcellulose (CMC)) of the same compound?
Answer: 0 of 4

Question: And the survivor count (dose: 80.0 mg/kg/injection, schedule: Q01DX001 (ip), vehicle: carboxymethylcellulose (CMC))?
Answer: 0 of 4

Question: And the survivor count (dose: 100.0 mg/kg/injection, schedule: Q01DX001 (ip), vehicle: carboxymethylcellulose (CMC))?
Answer: 0 of 4

Question: And the survivor count [1]?
Answer: 0 of 4

Question: And the survivor count [2]?
Answer: 0 of 4

Question: With `Nc1ncc(C[P+](c2ccccc2)(c2ccccc2)c2ccccc2)c(N)n1` as the compound, how does the survivor count (dose: 100.0 mg/kg/injection, schedule: Q04DX003 (ip), vehicle: Klucel (hydroxypropylcellulose) (HPC)) read?
Answer: 0 of 3

Question: And the survivor count (dose: 200.0 mg/kg/injection, schedule: Q04DX003 (ip), vehicle: Klucel (hydroxypropylcellulose) (HPC))?
Answer: 0 of 3

Question: And the survivor count [3]?
Answer: 0 of 3

Question: With `CCOC(=O)NC(/C=C/c1ccccc1)NC(=O)OCC` as the compound, how does the survivor count [1] read?
Answer: 4 of 4

Question: Which results are given for `COc1cc(/C=C(/C)[N+](=O)[O-])ccc1O`?
Answer: survivor count (dose: 100.0 mg/kg/injection, schedule: Q01DX009 (ip), vehicle: carboxymethylcellulose (CMC)): 3 of 6; survivor count (dose: 200.0 mg/kg/injection, schedule: Q01DX009 (ip), vehicle: carboxymethylcellulose (CMC)): 1 of 6; survivor count [3]: 1 of 6

Question: For `CC(C)COP(=O)(Cc1ccccc1)OCC(C)C`, which survivor count (dose: 400.0 mg/kg/injection, schedule: Q01DX009 (ip), vehicle: Klucel (hydroxypropylcellulose) (HPC)) is on record?
Answer: 3 of 6

Question: With `c1ccc([C@H]2CN3CCSC3=N2)cc1` as the compound, how does the survivor count (dose: 40.0 mg/kg/injection, schedule: Q01DX009 (ip), vehicle: saline) read?
Answer: 2 of 6

Question: How did the survivor count (dose: 200.0 mg/kg/injection, schedule: Q01DX009 (ip), vehicle: water) turn out when `COc1cc2cc(-c3cc(OC)c(OC)c(OC)c3)c3c(c2cc1OC)CNC3` was run?
Answer: 5 of 6

Question: What about the survivor count (dose: 400.0 mg/kg/injection, schedule: Q01DX009 (ip), vehicle: water) of the same compound?
Answer: 0 of 6

Question: Which survivor count (dose: 37.5 mg/kg/injection, schedule: Q01DX001 (ip), vehicle: other) does the source give for `O=[N+]([O-])c1ccc(C[N+]2(CCC[N+]3(Cc4ccc([N+](=O)[O-])cc4)CCCC3)CCCC2)cc1` here?
Answer: 3 of 6

Question: And the survivor count (dose: 75.0 mg/kg/injection, schedule: Q01DX001 (ip), vehicle: other)?
Answer: 0 of 6

Question: And the survivor count (dose: 150.0 mg/kg/injection, schedule: Q01DX001 (ip), vehicle: other)?
Answer: 0 of 6

Question: And the survivor count (dose: 300.0 mg/kg/injection, schedule: Q01DX001 (ip), vehicle: other)?
Answer: 1 of 6

Question: For `O=C(O)c1cc(I)c(I)c(I)c1`, which survivor count [4] is on record?
Answer: 2 of 3

Question: `COc1ncnc2c1ccn2C1OC(CO)C(O)C1O` (configuration not stated) was tested. Which survivor count (dose: 200.0 mg/kg/injection, schedule: Q01DX001 (ip), vehicle: saline) did it give?
Answer: 0 of 4

Question: For `O=[N+]([O-])c1ccc(C=Nc2cccc3ncccc23)s1`, which survivor count [3] is on record?
Answer: 0 of 6

Question: Which survivor count (dose: 50.0 mg/kg/injection, schedule: Q01DX009 (ip), vehicle: saline with Tween-80) does the source give for `O=C(C=C(C(F)(F)F)C(F)(F)F)c1cccc(C(F)(F)F)c1` here?
Answer: 3 of 6

Question: And the survivor count [5]?
Answer: 6 of 6

Question: And the survivor count [4]?
Answer: 0 of 6

Question: With `O=P1(N(CCF)CCF)NCCCO1` (configuration not stated) as the compound, how does the survivor count (dose: 100.0 mg/kg/injection, schedule: Q01DX Z (ip), vehicle: other) read?
Answer: 0 of 6

Question: What about the survivor count (dose: 300.0 mg/kg/injection, schedule: Q01DX Z (ip), vehicle: other) of the same compound?
Answer: 0 of 6

Question: With `CC1(Cl)C(=O)NC(=O)NC1=O` as the compound, how does the survivor count [6] read?
Answer: 0 of 6

Question: Which T/C [5] does the source give for `CCOC(=O)C(C(=O)c1ccccc1)c1cc(NS(=O)(=O)c2ccccc2)ccc1O` (configuration not stated) here?
Answer: 133 % of control

Question: And the survivor count [4]?
Answer: 6 of 6

Question: Which results are given for `CC1CN=C(c2ccc(NC(=O)c3ccc(C(=O)Nc4ccc(C5=NCC(C)CN5)cc4)cc3)cc2)NC1` (configuration not stated)?
Answer: survivor count (dose: 8.0 mg/kg/injection, schedule: Q01DX015 (ip), vehicle: water): 3 of 6; survivor count (dose: 16.0 mg/kg/injection, schedule: Q01DX015 (ip), vehicle: water): 0 of 6; survivor count (dose: 31.0 mg/kg/injection, schedule: Q01DX015 (ip), vehicle: methylcellulose (MC)): 0 of 6; survivor count (dose: 62.0 mg/kg/injection, schedule: Q01DX015 (ip), vehicle: methylcellulose (MC)): 0 of 6; survivor count (dose: 125.0 mg/kg/injection, schedule: Q01DX015 (ip), vehicle: methylcellulose (MC)): 0 of 6; survivor count (dose: 250.0 mg/kg/injection, schedule: Q01DX015 (ip), vehicle: methylcellulose (MC)): 0 of 6

Question: For `CN1CCCC1c1ccc(Br)cc1` (configuration not stated), which survivor count (dose: 200.0 mg/kg/injection, schedule: Q01DX001 (ip), vehicle: acetone) is on record?
Answer: 1 of 6

Question: And the survivor count (dose: 400.0 mg/kg/injection, schedule: Q01DX001 (ip), vehicle: acetone)?
Answer: 0 of 6

Question: For `CC(CN1CCN(C)CC1)CN1c2ccccc2Sc2ccc(C(F)(F)F)cc21` (configuration not stated), which survivor count [6] is on record?
Answer: 2 of 4

Question: And the survivor count [5]?
Answer: 0 of 6

Question: What about the survivor count (dose: 200.0 mg/kg/injection, schedule: Q04DX003 (ip), vehicle: saline) of the same compound?
Answer: 0 of 4

Question: And the survivor count [4]?
Answer: 0 of 6

Question: And the survivor count (dose: 400.0 mg/kg/injection, schedule: Q04DX003 (ip), vehicle: saline)?
Answer: 0 of 4

Question: How did the survivor count (dose: 400.0 mg/kg/injection, schedule: Q01DX001 (ip), vehicle: Klucel (hydroxypropylcellulose) (HPC)) turn out when `CN=C(NO)c1ccccc1` was run?
Answer: 2 of 6

Question: Which survivor count (dose: 25.0 mg/kg/injection, schedule: Q01DX001 (ip), vehicle: saline with Tween-80) does the source give for `O=S(=O)(F)c1c(Cl)cccc1C[P+](c1ccccc1)(c1ccccc1)c1ccccc1` here?
Answer: 1 of 6

Question: And the survivor count (dose: 50.0 mg/kg/injection, schedule: Q01DX001 (ip), vehicle: saline)?
Answer: 5 of 6

Question: And the survivor count (dose: 100.0 mg/kg/injection, schedule: Q01DX001 (ip), vehicle: saline with Tween-80)?
Answer: 0 of 6

Question: What about the survivor count (dose: 100.0 mg/kg/injection, schedule: Q01DX001 (ip), vehicle: saline) of the same compound?
Answer: 0 of 6

Question: What about the survivor count (dose: 200.0 mg/kg/injection, schedule: Q01DX001 (ip), vehicle: saline with Tween-80) of the same compound?
Answer: 0 of 6

Question: And the survivor count (dose: 400.0 mg/kg/injection, schedule: Q01DX001 (ip), vehicle: saline with Tween-80)?
Answer: 0 of 6

Question: `Cc1cc2cc3ccc(Cl)nn3c2n[n+]1[O-]` was tested. Which survivor count (dose: 250.0 mg/kg/injection, schedule: Q04DX002 (ip), vehicle: Klucel (hydroxypropylcellulose) (HPC)) did it give?
Answer: 2 of 3

Question: For `O=C1C=CC(=O)C(SCCC(=O)O)=C1`, which survivor count [1] is on record?
Answer: 1 of 4

Question: What about the survivor count [2] of the same compound?
Answer: 1 of 4
